Test results: the supplement of paper PMC7661543
± gives the standard deviation of the averaged measurements. The effect of the compound repeats well; differences between the knockouts mostly do not.

Test system: BT-20
Assay: relative cell number vs DMSO control (72 h) (% of DMSO); higher = less growth inhibition (more cells)
Procedure: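 QMAP-Seq: a pool of 5 breast cancer cell lines (ZR-75-1, SKBR3, HCC-38, MDA-MB-231, BT-20), each carrying 12 doxycycline-inducible Cas9 sgRNA perturbations (11 knockouts plus non-targeting sgNT), was treated with compounds for 72 h at four 10-fold doses (10 nM-10 uM or 1 nM-1 uM range). Barcodes were amplified and sequenced, and cell number was interpolated from 293T spike-in standard curves. The result is expressed as % of the median of DMSO wells. Two biological replicates.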

C[C@@H]1CN(CC(=O)Nc2ccc3c(c2)Cc2cccc(-c4cc(=O)cc(N5CCOCC5)o4)c2S3)C[C@H](C)O1
Conditions	relative cell number
sgRNA knockout: sgATF3, 10 nM	89.4 ± 8.8
sgRNA knockout: sgATF3, 100 nM	102 ± 7.3
sgRNA knockout: sgATF3, 1000 nM	88.1 ± 8.6
sgRNA knockout: sgATF3, 10000 nM	53.3 ± 9.4
sgRNA knockout: sgATF4, 10 nM	94.6 ± 1.6
sgRNA knockout: sgATF4, 100 nM	84.954 ± 0.075
sgRNA knockout: sgATF4, 1000 nM	88.88 ± 0.84
sgRNA knockout: sgATF4, 10000 nM	55.6 ± 6.7
sgRNA knockout: sgATF6, 10 nM	84.6 ± 25
sgRNA knockout: sgATF6, 100 nM	101 ± 4.4
sgRNA knockout: sgATF6, 1000 nM	82.6 ± 9.3
sgRNA knockout: sgATF6, 10000 nM	52.6 ± 1.7
sgRNA knockout: sgATG7, 10 nM	91.5 ± 3.7
sgRNA knockout: sgATG7, 100 nM	98 ± 7.7
sgRNA knockout: sgATG7, 1000 nM	95.8 ± 3.3
sgRNA knockout: sgATG7, 10000 nM	49 ± 1.6
sgRNA knockout: sgERN1, 10 nM	96.3 ± 9.3
sgRNA knockout: sgERN1, 100 nM	110 ± 15
sgRNA knockout: sgERN1, 1000 nM	83.96 ± 0.33
sgRNA knockout: sgERN1, 10000 nM	58.6 ± 8.6
sgRNA knockout: sgHSF1, 10 nM	103 ± 8.6
sgRNA knockout: sgHSF1, 100 nM	87.8 ± 13
sgRNA knockout: sgHSF1, 1000 nM	87.7 ± 4.6
sgRNA knockout: sgHSF1, 10000 nM	58.7 ± 3.3
sgRNA knockout: sgHSF2, 10 nM	88.7 ± 20
sgRNA knockout: sgHSF2, 100 nM	81.9 ± 1.1
sgRNA knockout: sgHSF2, 1000 nM	101 ± 3.3
sgRNA knockout: sgHSF2, 10000 nM	50.6 ± 9.7
sgRNA knockout: sgKEAP1, 10 nM	94.8 ± 4
sgRNA knockout: sgKEAP1, 100 nM	98.6 ± 1.7
sgRNA knockout: sgKEAP1, 1000 nM	87.9 ± 1.9
sgRNA knockout: sgKEAP1, 10000 nM	57.9 ± 6.5
sgRNA knockout: sgNFE2L2, 10 nM	108 ± 14
sgRNA knockout: sgNFE2L2, 100 nM	92.5 ± 5.9
sgRNA knockout: sgNFE2L2, 1000 nM	102 ± 2.6
sgRNA knockout: sgNFE2L2, 10000 nM	52.6 ± 10
sgRNA knockout: sgSLC35F2, 10 nM	92.1 ± 19
sgRNA knockout: sgSLC35F2, 100 nM	114 ± 7.5
sgRNA knockout: sgSLC35F2, 1000 nM	94 ± 10
sgRNA knockout: sgSLC35F2, 10000 nM	68 ± 18
sgRNA knockout: sgXBP1, 10 nM	104 ± 8.5
sgRNA knockout: sgXBP1, 100 nM	95.13 ± 0.28
sgRNA knockout: sgXBP1, 1000 nM	93.2 ± 8
sgRNA knockout: sgXBP1, 10000 nM	68.8 ± 19

CC(C)[C@H](O)C(=O)N[C@@H](C)C(=O)N[C@@H]1C(=O)N(C)CCc2ccccc21 [Semagacestat]
Conditions	relative cell number
sgRNA knockout: sgATF3, 10 nM	100 ± 4.4
sgRNA knockout: sgATF3, 100 nM	100 ± 7.2
sgRNA knockout: sgATF3, 1000 nM	90 ± 2.7
sgRNA knockout: sgATF3, 10000 nM	94.7 ± 8.8
sgRNA knockout: sgATF4, 10 nM	104 ± 6.2
sgRNA knockout: sgATF4, 100 nM	111 ± 18
sgRNA knockout: sgATF4, 1000 nM	115 ± 14
sgRNA knockout: sgATF4, 10000 nM	92.2 ± 1.8
sgRNA knockout: sgATF6, 10 nM	101 ± 1.8
sgRNA knockout: sgATF6, 100 nM	95.2 ± 16
sgRNA knockout: sgATF6, 1000 nM	104.4 ± 0.28
sgRNA knockout: sgATF6, 10000 nM	89.7 ± 2.3
sgRNA knockout: sgATG7, 10 nM	118 ± 33
sgRNA knockout: sgATG7, 100 nM	95.8 ± 11
sgRNA knockout: sgATG7, 1000 nM	106 ± 9.8
sgRNA knockout: sgATG7, 10000 nM	89.6 ± 1.9
sgRNA knockout: sgERN1, 10 nM	103 ± 16
sgRNA knockout: sgERN1, 100 nM	93.4 ± 6.8
sgRNA knockout: sgERN1, 1000 nM	92.2 ± 4.7
sgRNA knockout: sgERN1, 10000 nM	94.3 ± 8.3
sgRNA knockout: sgHSF1, 10 nM	103 ± 9.8
sgRNA knockout: sgHSF1, 100 nM	114 ± 9
sgRNA knockout: sgHSF1, 1000 nM	85.6 ± 2.6
sgRNA knockout: sgHSF1, 10000 nM	89.2 ± 5.5
sgRNA knockout: sgHSF2, 10 nM	99.8 ± 18
sgRNA knockout: sgHSF2, 100 nM	88.9 ± 6.7
sgRNA knockout: sgHSF2, 1000 nM	96 ± 14
sgRNA knockout: sgHSF2, 10000 nM	95.7 ± 3.4
sgRNA knockout: sgKEAP1, 10 nM	102 ± 17
sgRNA knockout: sgKEAP1, 100 nM	91.6 ± 7.5
sgRNA knockout: sgKEAP1, 1000 nM	126 ± 2.9
sgRNA knockout: sgKEAP1, 10000 nM	95.13 ± 0.77
sgRNA knockout: sgNFE2L2, 10 nM	89 ± 26
sgRNA knockout: sgNFE2L2, 100 nM	121 ± 14
sgRNA knockout: sgNFE2L2, 1000 nM	99.5 ± 2.9
sgRNA knockout: sgNFE2L2, 10000 nM	101 ± 19
sgRNA knockout: sgSLC35F2, 10 nM	105 ± 10
sgRNA knockout: sgSLC35F2, 100 nM	101 ± 23
sgRNA knockout: sgSLC35F2, 1000 nM	99 ± 24
sgRNA knockout: sgSLC35F2, 10000 nM	89.2 ± 11
sgRNA knockout: sgXBP1, 10 nM	90.61 ± 0.72
sgRNA knockout: sgXBP1, 100 nM	102 ± 22
sgRNA knockout: sgXBP1, 1000 nM	119 ± 18
sgRNA knockout: sgXBP1, 10000 nM	90.02 ± 0.75

CC(C)(C)c1nc(-c2cccc(NS(=O)(=O)c3c(F)cccc3F)c2F)c(-c2ccnc(N)n2)s1 [Dabrafenib]
Conditions	relative cell number
sgRNA knockout: sgATF3, 10 nM	137 ± 24
sgRNA knockout: sgATF3, 100 nM	126 ± 3.1
sgRNA knockout: sgATF3, 1000 nM	114 ± 8.6
sgRNA knockout: sgATF3, 10000 nM	119 ± 3.8
sgRNA knockout: sgATF4, 10 nM	152 ± 31
sgRNA knockout: sgATF4, 100 nM	126 ± 40
sgRNA knockout: sgATF4, 1000 nM	107 ± 4.9
sgRNA knockout: sgATF4, 10000 nM	114 ± 3.6
sgRNA knockout: sgATF6, 10 nM	134 ± 38
sgRNA knockout: sgATF6, 100 nM	92.5 ± 2.3
sgRNA knockout: sgATF6, 1000 nM	120 ± 7
sgRNA knockout: sgATF6, 10000 nM	128 ± 26
sgRNA knockout: sgATG7, 10 nM	142 ± 5.3
sgRNA knockout: sgATG7, 100 nM	136 ± 31
sgRNA knockout: sgATG7, 1000 nM	96.9 ± 11
sgRNA knockout: sgATG7, 10000 nM	117 ± 2.4
sgRNA knockout: sgERN1, 10 nM	141 ± 40
sgRNA knockout: sgERN1, 100 nM	122 ± 16
sgRNA knockout: sgERN1, 1000 nM	93.5 ± 32
sgRNA knockout: sgERN1, 10000 nM	118 ± 12
sgRNA knockout: sgHSF1, 10 nM	150 ± 23
sgRNA knockout: sgHSF1, 100 nM	119 ± 3.1
sgRNA knockout: sgHSF1, 1000 nM	108 ± 5
sgRNA knockout: sgHSF1, 10000 nM	111 ± 1.7
sgRNA knockout: sgHSF2, 10 nM	144 ± 25
sgRNA knockout: sgHSF2, 100 nM	116 ± 6.8
sgRNA knockout: sgHSF2, 1000 nM	102 ± 18
sgRNA knockout: sgHSF2, 10000 nM	109 ± 19
sgRNA knockout: sgKEAP1, 10 nM	141 ± 29
sgRNA knockout: sgKEAP1, 100 nM	112 ± 1.6
sgRNA knockout: sgKEAP1, 1000 nM	97 ± 28
sgRNA knockout: sgKEAP1, 10000 nM	114 ± 14
sgRNA knockout: sgNFE2L2, 10 nM	146 ± 23
sgRNA knockout: sgNFE2L2, 100 nM	134 ± 6.2
sgRNA knockout: sgNFE2L2, 1000 nM	100 ± 10
sgRNA knockout: sgNFE2L2, 10000 nM	104 ± 1.4
sgRNA knockout: sgSLC35F2, 10 nM	136 ± 20
sgRNA knockout: sgSLC35F2, 100 nM	117 ± 16
sgRNA knockout: sgSLC35F2, 1000 nM	104 ± 1.5
sgRNA knockout: sgSLC35F2, 10000 nM	107 ± 15
sgRNA knockout: sgXBP1, 10 nM	142 ± 40
sgRNA knockout: sgXBP1, 100 nM	123 ± 5.1
sgRNA knockout: sgXBP1, 1000 nM	112 ± 7.6
sgRNA knockout: sgXBP1, 10000 nM	116 ± 13
